Data published in PMC5522200.
No constants are given. Whether binding was seen depends on the method and setting. In cells and extracts the contact can be indirect. Some entries that bind do so weakly or less than the wild type. For part of these data: Where a sequence is shown, tags or fusion partners need not be part of it.

B1: FHL2, endogenous (protein, UniProt Q14192 1-279)
chain: MTERFDCHHCNESLFGKKYILREESPYCVVCFETLFANTCEECGKPIGCDCKDLSYKDRHWHEACFHCSQCRNSLVDKPFAAKEDQLLCTDCYSNEYSSKCQECKKTIMPGTRKMEYKGSSWHETCFICHRCQQPIGTKSFIPKDNQNFCVPCYEKQHAMQCVQCKKPITTGGVTYREQPWHKECFVCTACRKQLSGQRFTARDDFAYCLNCFCDLYAKKCAGCTNPISGLGGTKYISFEERQWHNDCFNCKKCSLSLVGRGFLTERDDILCPDCGKDI
B2: Myc-FHL2 (protein, UniProt Q14192 1-279)
chain: B1 chain
B3: Myc-L1/2-3 (domain or fragment, UniProt Q14192 1-220)
chain: MTERFDCHHCNESLFGKKYILREESPYCVVCFETLFANTCEECGKPIGCDCKDLSYKDRHWHEACFHCSQCRNSLVDKPFAAKEDQLLCTDCYSNEYSSKCQECKKTIMPGTRKMEYKGSSWHETCFICHRCQQPIGTKSFIPKDNQNFCVPCYEKQHAMQCVQCKKPITTGGVTYREQPWHKECFVCTACRKQLSGQRFTARDDFAYCLNCFCDLYAKK

How the values were obtained:
[1] = molecular target: T1, iASPP, endogenous (human (endogenous in K562 and Kasumi-1)) (UniProt Q8WUF5); assay: co-IP; endogenous proteins; K562 and Kasumi-1 lysates (20mM Tris PH7.5, 150mM NaCl, 1% Triton X-100) immunoprecipitated with anti-iASPP or control anti-IgG antibody overnight at 4°C, protein A/G-Sepharose; blotted with anti-FHL2
T1 sequence: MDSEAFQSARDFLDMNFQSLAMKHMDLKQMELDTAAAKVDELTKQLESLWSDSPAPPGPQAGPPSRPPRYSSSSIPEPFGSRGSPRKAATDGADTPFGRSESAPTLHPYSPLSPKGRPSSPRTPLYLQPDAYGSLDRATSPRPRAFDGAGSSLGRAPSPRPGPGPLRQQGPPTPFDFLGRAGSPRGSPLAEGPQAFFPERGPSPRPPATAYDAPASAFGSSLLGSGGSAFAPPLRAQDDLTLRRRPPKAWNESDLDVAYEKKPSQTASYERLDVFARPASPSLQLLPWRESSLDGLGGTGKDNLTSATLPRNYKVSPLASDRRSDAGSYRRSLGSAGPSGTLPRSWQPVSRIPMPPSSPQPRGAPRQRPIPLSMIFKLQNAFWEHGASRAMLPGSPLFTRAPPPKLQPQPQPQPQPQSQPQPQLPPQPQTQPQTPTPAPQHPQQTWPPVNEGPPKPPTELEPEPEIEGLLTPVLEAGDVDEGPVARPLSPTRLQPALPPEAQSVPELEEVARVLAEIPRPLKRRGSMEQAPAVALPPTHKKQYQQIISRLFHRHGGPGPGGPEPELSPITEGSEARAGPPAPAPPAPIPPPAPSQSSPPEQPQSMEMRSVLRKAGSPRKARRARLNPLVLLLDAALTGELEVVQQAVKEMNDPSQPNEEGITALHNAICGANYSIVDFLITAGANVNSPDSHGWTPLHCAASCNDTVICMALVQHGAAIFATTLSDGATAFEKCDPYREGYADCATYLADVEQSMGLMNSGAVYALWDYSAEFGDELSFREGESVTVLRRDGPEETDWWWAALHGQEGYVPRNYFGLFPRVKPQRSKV

Flag-iASPP (human) = molecular target: T2, Flag-iASPP (human) (UniProt Q8WUF5); assay: co-IP; Flag-iASPP and Myc-FHL2 or truncation mutants co-transfected into HEK293T, 48 hours; lysates immunoprecipitated with anti-Flag or anti-IgG antibodies; blotted with anti-Flag or anti-Myc
T2 sequence: T1 sequence

Binder	binding [1]	binding (Flag-iASPP (human))
B1	binds	–
B2	–	binds
B3	–	binds
